In publication PMC12040169 (PLOS Biology, 2025):
This is one part of the list.

system: T1, CTL2-GFP (C. trachomatis L2/434/Bu, GFP-expressing); set-up: species or system HeLa; Intracellular C. trachomatis growth in HeLa cells, bulk GFP fluorescence relative to DMSO; conditions: bulk GFP, single well; 28.5 h, 10 µM; inhibitor
T1 construct: L2/434/Bu, GFP-expressing

Structure (SMILES) | % of control remaining
O=C(N[C@H]1C[C@H](c2nnc(CO)n2C2CC2)C1)c1ccc(Cl)c(F)c1 [CBK307093] | 109.019%
O=C(O)C1CC(=O)N(Cc2ccccc2)C1c1ccccc1 (stereo not shown) [CBK286876] | 113.192%
O=C(O)CCCC(=O)Nc1ccccc1C(=O)NCc1ccco1 [CBK299840] | 143.423%
C=CCNC(=O)N[C@H]1C[C@H]2C(=O)Nc3cc(Cl)ccc3C(=O)N2C1 [CBK289365] | 110.183%
CCCn1nccc1C(=O)NC1CCCN(Cc2cccc(OC)c2)C1 (stereo not shown) [CBK306563] | 136.475%
O=C(c1cccnc1)C1CCN(C(=O)Cc2ccccc2Cl)CC1 [CBK283690] | 145.272%
CC(C)(C)c1nnc(NCC2CCCCC2)s1 [CBK075043] | 117.523%
Cc1cc(C(=O)NCc2cccnc2N(C)C2CCCCC2)[nH]n1 [CBK306668] | 106.289%
CCn1cc(S(=O)(=O)NCc2ccccc2F)cn1 [CBK270306] | 95.7074%
COc1ccc(N2CCN(c3cc(-c4ccccc4OCc4ccccc4)ncn3)CC2)cc1OC [CBK091024] | 97.8699%
CCOC(=O)CC(O)(c1ccc(OC)cc1)c1cc(C)no1 (stereo not shown) [CBK023133] | 117.719%
CN(C)CCN1CCN(c2cccc(-c3ccc(-c4ccccc4)cc3)n2)CC1 [CBK037610] | 129.653%
C=CCn1c(C)c(CN2CCc3c(nc(C)[nH]c3=O)C2)c2ccccc21 [CBK283990] | 146.194%
O=C(NCc1ccc2c(c1)OCO2)C1CN(S(=O)(=O)c2ccccc2)CCN1S(=O)(=O)c1ccccc1 (stereo not shown) [CBK267059] | 183.483%
O=C1c2ccccc2C2OCc3ccccc3N12 (stereo not shown) [CBK109952] | 124.237%
O=C(NCCCCn1ccnc1)c1noc2c1CCCC2 [CBK283208] | 124.189%
Cc1ccc2nc(C)cc(NCCO)c2c1 [CBK126909] | 73.5079%
OCCN1CC2(CCN(Cc3cccc4cccnc34)CC2)c2ccccc21 [CBK137014] | 118.238%
O=C1S/C(=C/c2ccc(Cl)cc2)C(=O)N1c1ccc(F)cc1 [CBK113265] | 98.0911%
CN(C)CCN1C(=O)CCc2ccccc21 [CBK023390C] | 138.231%
COC(=O)CCC(=O)N1CCC(Cn2cncn2)(C2CCCCC2)CC1 [CBK136810] | 134.68%

Structure (SMILES) | % of control remaining
OC(Cc1ccccc1)c1cc2n(n1)CCN(Cc1ccsc1)C2 (stereo not shown) [CBK307603] | 119.129%
O=C(c1cccc([N+](=O)[O-])c1)N1CCN(S(=O)(=O)N2CCOCC2)CC1 [CBK267469] | 110.272%
O=C(N1CCC=C(F)C1)C12CCOCC1CN(c1ncccn1)C2 (stereo not shown) [CBK304264] | 104.088%
CN(C)c1ccc(-c2cc(N3CCN(S(=O)(=O)c4ccc(Cl)cc4)CC3)ncn2)cc1 [CBK091158] | 169.731%
CN(C)Cc1cc(-c2ccccc2F)nn1CCNC(=O)C1CC1 [CBK282006] | 141.957%
CSc1nsc(SCC(=O)c2cc3ccccc3oc2=O)n1 [CBK268833] | 126.826%
CCC1C=CCC(C(=O)O)C1C(=O)Nc1ccc(C(=O)N2CCOCC2)cc1 (stereo not shown) [CBK265798] | 221.367%
CCOc1cccc(C(=O)NC(=S)Nc2nc(C)c(C(=O)OC)s2)c1 [CBK092056] | 108.852%
CN1CCN(C(=O)C[C@@H]2CCNC[C@@H]2Cc2cc(CC3CCCCC3)on2)CC1 [CBK289151] | 129.88%
Cc1cc2c(s1)c1cnn(CC(=O)NC3CCCC3)c(=O)c1n2C [CBK284189] | 109.905%
Cn1c(=O)c2c(nc(CN3CCC(Cc4ccccc4)CC3)n2CC(=O)c2ccccc2)n(C)c1=O [CBK236846] | 112.541%
Cc1ccccc1CNCCNCC(C)O (stereo not shown) [CBK268718C] | 104.856%
Cc1ccc(S(=O)(=O)N2CCC(N3CCN(CCO)CC3)CC2)cc1 [CBK264656G] | 100%
O=C(Nc1ccccc1F)c1cc(Cl)sc1Cl [CBK085969] | 141.874%
CNc1c(C)cc([N+](C)(C)C)cc1C [CBK261007I] | 100%
C=CCN1C(=O)C2(CC(=O)N(CCC3CCCCC3)C2=O)c2ccccc21 (stereo not shown) [CBK075160] | 95.1207%
FC(F)(F)c1ccc(OCCCc2ccncc2)nc1 [CBK115791] | 98.5455%
COCCOc1cccc(OCCOc2nccnc2N2CCNC[C@H]2C)c1 [CBK048435] | 105.069%
O=C(Nc1ccc(S(=O)(=O)Nc2ncccn2)cc1)c1ccc(N2C(=O)c3ccccc3C2=O)cc1 [CBK264868] | 102.784%
CC(C)(C)C(=O)Nc1ccc(S(=O)(=O)NC2CCCCC2)cc1 [CBK268783] | 117.922%
CC(C)C1C(=O)Nc2ccccc2N1C(=O)NCCC(=O)O (stereo not shown) [CBK286659] | 129.005%

Structure (SMILES) | % of control remaining
CCn1cc(-c2cncn2CC(C)N2CCCCC2)cn1 (stereo not shown) [CBK281556] | 103.083%
O=C(O)CC(C(=O)O)c1ccc(Cl)cc1Cl (stereo not shown) [CBK268523] | 136.79%
CCCCOc1ccc(C(=O)N(C)c2cnn(C)c2)c(O)c1 [CBK306167] | 133.463%
COc1cc(F)ccc1-c1ccc(NS(C)(=O)=O)c2ccccc12 [CBK083744] | 97.9864%
C[C@@H]1C(=O)O[C@H]2[C@H]1CC[C@@]1(C)Cc3sc(NC(=O)CN(C)C)nc3[C@@H](C)[C@H]21 [CBK289431] | 128.289%
O=C(O)CCSC(CC(=O)c1ccccc1)c1ccc(Cl)cc1 (stereo not shown) [CBK077251] | 102.901%
O=c1[nH]c(=S)c2c(n1CCc1ccccn1)CCCC2 [CBK023951G] | 127.764%
NC(=O)CN1CCN(c2nccnc2Oc2ccc(F)cc2)CC1 [CBK083018T] | 97.8623%
O=C(NCc1cccnc1)c1ccc(-c2cccc(Cl)c2Cl)o1 [CBK112211] | 82.8408%
O=C(Nc1cccnc1)N1CCCCC1CO (stereo not shown) [CBK155990] | 75.5409%
Clc1cccc(-n2cnnn2)c1Cl [CBK027665] | 160.245%
O=C(Nc1nc(-c2ccccc2)ns1)c1ccncc1 [CBK113234] | 100%
COC(=O)c1ccc(NC(=O)C2Cc3ccccc3CN2S(=O)(=O)c2cccs2)cc1 (stereo not shown) [CBK265693] | 100%
Cc1nc(-c2ccc(NC(=O)CC(C)n3cccn3)cc2)cs1 (stereo not shown) [CBK281403] | 114.755%
Cc1cc2c(s1)c1cnn(CC(=O)N3CCCCC3)c(=O)c1n2C [CBK284187] | 115.005%
CCC(=O)c1c(-c2ccccc2)nc2n(C)c3ccccc3n12 [CBK262488] | 81.6528%
Cc1nc(N(C)C)ncc1C(=O)NCCSc1nnnn1C [CBK306673] | 120.393%
CN(C)CCOC(=O)C1CCCCCN1C (stereo not shown) [CBK278175G] | 100%
CN(C)c1ccc([N+](=O)[O-])cc1/C=N/NC(=O)CCc1ccccc1O [CBK263257] | 125.915%
CC(C)N(C(=O)N1CCC(c2cccnc2)CC1)C(C)C [CBK283850] | 112.609%
CC(=O)N1CCN(c2ccccc2NC(=O)c2ccc(OCc3ccccc3)cc2)CC1 [CBK269775] | 95.743%

Structure (SMILES) | % of control remaining
COc1cccc(NC(=O)CN2CCN(c3nc4ccc([N+](=O)[O-])cc4s3)CC2)c1 [CBK264089] | 108.352%
N#Cc1cccc(S(=O)(=O)Nc2cccc(C(=O)O)c2)c1 [CBK155699] | 99.7981%
Cc1cc(C)nc(NC(=N)NC2Cc3ccccc3C2)n1 [CBK287863] | 45.9334%
Cc1ccc(C(C)(C)C(=O)N2CC(C(=O)N3CCN(C)CC3)C2)cc1 [CBK281371] | 114.869%
O=C(CSCc1ccc([N+](=O)[O-])cc1)Nc1ccc(O)cc1C(=O)O [CBK131710] | 146.912%
O=C1N/C(=C/c2cccs2)C(=O)N1Cc1ccccc1F [CBK265601] | 127.427%
CCN(CC)c1nc2n(c(=O)n1)CCN2CC [CBK027342] | 156.341%
O=C(CSc1ccccc1)Nc1nccs1 [CBK288213] | 92.8877%
CC(=O)N1CC(C)(C)c2ccccc21 [CBK003715] | 124.797%
CCOC(=O)Nc1ccc2ccccc2n1 [CBK028207] | 166.32%
Cc1ccc(OCCCC(=O)N2CCCc3c(cnn3C)C2)c(C)c1 [CBK285288] | 79.2233%
O=C1c2ccccc2C(=O)N1CSc1nnc2c3ccccc3n(CCc3ccccc3)c2n1 [CBK263891] | 96.784%
COc1ccc(-n2nnnc2SCc2ccc(Cl)cc2)cc1 [CBK101068] | 102.192%
O=[N+]([O-])c1ccccc1S(=O)(=O)NCCSCc1c(F)cccc1Cl [CBK265259] | 100%
CCOC(=O)c1c2c([nH]c(=S)c1C#N)CCCC2 [CBK020049] | 168.945%
Cn1nccc1C(=O)C1CCN(C(=O)c2ccccc2F)CC1 [CBK284425] | 116.568%
COC(=O)c1c(NC(=O)CCCC(=O)O)sc2c1CCCCC2 [CBK265393] | 126.39%
CC(C)NC(=O)N1CCN(Cc2nc(-c3ccoc3)no2)CC1 [CBK306248] | 148.873%
O=[N+]([O-])c1ccc2c(c1)C=C1CCCCC1(NCc1ccccc1)O2 (stereo not shown) [CBK262716] | 96.073%

Quoted from above, 5 compounds:
Structure (SMILES) | % of control remaining
CC(=O)N1CC(C)(C)c2ccccc21 [CBK003715] | 124.797%
CCOC(=O)Nc1ccc2ccccc2n1 [CBK028207] | 166.32%
Cc1ccc(OCCCC(=O)N2CCCc3c(cnn3C)C2)c(C)c1 [CBK285288] | 79.2233%
O=C1c2ccccc2C(=O)N1CSc1nnc2c3ccccc3n(CCc3ccccc3)c2n1 [CBK263891] | 96.784%
COc1ccc(-n2nnnc2SCc2ccc(Cl)cc2)cc1 [CBK101068] | 102.192%
